Experimental data published in patent US20160340421A1.
No constants are given. Whether binding was seen depends on the method and setting. In cells and extracts the contact can be indirect. Here binding means that the protein was enriched with, or labelled near, the bait; the list need not be complete.

Biological target: T1, mouse GDF8 (from serum of treated C57BL6 mice) (mouse) (UniProt O08689)
T1 sequence: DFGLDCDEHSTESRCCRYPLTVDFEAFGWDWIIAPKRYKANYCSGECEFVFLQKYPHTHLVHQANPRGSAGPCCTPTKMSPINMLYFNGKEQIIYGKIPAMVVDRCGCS
Experiment: pull-down from serum of treated mice with anti human Fc beads, mass spectrometry

B1: H4H1657N2 (antibody, V domains shown)
VH: EVQVLESGGDLVQPGGSLRLSCAASGFTFSAYAMTWVRQAPGKGLEWVSAISGSGGSAYYADSVKGRFTISRDNSKNTVYLQMNSLRAEDTAVYYCAKDGAWKMSGLDVWGQGTTVIVSS
VL: DIQMTQSPASLSASVGDRVTITCRASQDISDYLAWYQQKPGKIPRLLIYTTSTLQSGVPSRFRGSGSGTDFTLTISSLQPEDVATYYCQKYDSAPLTFGGGTKVEIK
**Q.** For B1, which binding is on record?
**A.** binds
